Tested on: A2780 (cisplatin sensitive ovarian cancer cell line)
Assay: In vitro chemosensitivity (MTT) assay, A2780
Type: cell-based, human
Details: 24 h exposure, 72 h recovery, mean ± SD
Experimental: In vitro chemosensitivity tests were performed against HCT116 (colorectal cancer cell line), A2780 and A2780cisR (cisplatin sensitive and cisplatin resistant ovarian cancer cell lines, respectively). Cancer cell lines were routinely maintained as monolayer cultures in RPMI medium supplemented with 10% foetal calf serum, penicillin (100 I.U./ml) and streptomycin (100 μg/ml), sodium pyruvate (1 mM) and L-glutamine (2 mM). For chemosensitivity studies, cells were incubated in 96-well plates at a concentration of 7.5×10^3 cells per well and the plates were incubated for 24 hours at 37° C. and a 5% CO2 humidified atmosphere prior to drug exposure.
Complexes were dissolved in dimethylsulfoxide (DMSO) to provide stock solutions which were further diluted with media to provide a range of final concentrations. Drug-media solutions were added to cells (the final concentration of DMSO was less than 0.5% (v/v) in all cases) and incubated for 24 hours at 37° C. and 5% CO2 humidified atmosphere. […] A Thermo Scientific Multiskan EX microplate photometer was used to measure the absorbance in each well at 570 nm. Cell survival was determined as the absorbance of treated cells divided by the absorbance of controls and expressed as a percentage. The IC50 values were determined from plots of % survival against drug concentration. […]

N.N.[Cl][Pt][Cl] [cisplatin]
IC50: 5.7 ± 0.4 µM

— patent US20230090293A1, “ANTIBIOTICS” (ASTON UNIVERSITY, priority 2020, published 2023)
